Test [1] addresses RAIDD Death-Domain (DD) (94-199) (human) (UniProt P78560). Briefly: SEC; RAIDD DD alone; Superdex 200 10/30, 20 mM Tris-HCl pH 8.0, 150 mM KCl; both purified.
The next test deals with T1, PIDD Death Domain (DD) (UniProt Q9HB75).
T1 sequence: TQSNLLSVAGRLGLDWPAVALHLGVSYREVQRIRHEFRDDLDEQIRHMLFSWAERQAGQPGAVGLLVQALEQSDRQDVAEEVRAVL
Briefly: SEC; separately purified RAIDD DD and PIDD DD incubated 1 hr at room temperature, concentrated to 15-20 mg/mL; Superdex 200 10/30, 20 mM Tris-HCl pH 8.0, 50 mM NaCl; peak fractions checked by SDS-PAGE; both purified.

Amino acid sequences for entries named in this document (tags omitted). Residues count along the entry.
UniProt P78560, residues 94-199: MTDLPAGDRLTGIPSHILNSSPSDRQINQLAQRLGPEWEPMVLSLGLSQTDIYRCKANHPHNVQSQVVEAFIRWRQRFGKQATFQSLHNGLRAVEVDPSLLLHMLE

No constants are given. Whether binding was seen depends on the method and setting. Some binding calls cover weakened binding; strength is not graded here.

On to “RAIDD Death-Domain (DD) (94-199) (from UniProt P78560 94-199) (domain or fragment)”, for which the binding entry in test [1] was “no binding”; with PIDD Death Domain (DD) it was “binds”.

For the origin of these results see publication PMC2705503.
